This passage reports IC50 and EC50 results from paper PMC4503722, “Novel Phenotypic Outcomes Identified for a Public Collection of Approved Drugs from a Publicly Accessible Panel of Assays” (PLoS ONE, 2015).

What all share (test): cells
Type in all cases: cell-based

One test deals with HCT116. Particulars: Homo sapiens.
The subject of test [1] is HCT116 cells treated with a GSK3β inhibitor. The conditions noted are these: Homo sapiens.
In the next test the test system is DLD-1. Particulars: Homo sapiens.
The next test concerns SW480. Particulars: Homo sapiens.
Test [2] has as its system nuclear β-catenin in C2C12 cells. Particulars: Mus musculus, C2C12, read-out: Wnt Pathway.
The next test deals with NCI-H716 cells. Particulars: Homo sapiens, NCI-H716, read-out: GLP 1 Secretion.
The test system of a further test is INS-1E cells. Particulars: Rattus norvegicus, read-out: Insulin Secretion.

pEC50, pIC50: −log10 of the molar value. Read-outs that look alike come from different tables or passages of the source.

On to `CNC(=O)c1ccccc1Sc1ccc2c(/C=C/c3ccccn3)n[nH]c2c1` [axitinib, reference compound], for which the pIC50 in the test on HCT116 (HCT-116, 72 h, read-out: HCT-116 viab. IC50) was 4.77; with HCT116 (HCT-116, read-out: Basal_Viability ATP HCT116), 4.77; in test [1] (HCT-116, 72 h, read-out: HCT-116 (GSK3β) viab. IC50), less than 4.70; in the test with DLD-1 (DLD-1, 72 h, read-out: DLD-1 viab. IC50) it was 5.35; in the test with DLD-1 (DLD-1, read-out: Basal_Viability ATP DLD-1), 5.34; in the test with SW480 (SW480, 72 h, read-out: SW480 viab. IC50), 5.29. Moreover, the pIC50 with SW480 (SW480, read-out: Basal_Viability ATP SW480) was 5.29.
With `O=C(CCCCCCC(=O)Nc1ccccc1)NO` [vorinostat], the pEC50 (in test [2]; in the test on NCI-H716 cells; with INS-1E cells) was less than 5.00 in each case. In test [1] (HCT-116, read-out: GSK3b inh pretreated_Viability ATP HCT116), the pIC50 is 5.88.
